Source: paper PMC10163288
The list shows a part of the results.

B1: il2ra_site1_2b5i_normal_mot_HHH_b1_02271_000000068_0001_1_16_H_._HHH_b1_06299_0001_0000300016_0000001_0_af2pred_dldesign_0_af2pred (protein)
chain: SSSSSSRLEKLKRVEELLHQYEQAETEEERAELEAEIRALAAELKDPVVERAIEEAREERSSSSS
B2: il2ra_site2_3nfp_normal_mot_HHH_b1_02297_000000279_0001_41_58_H_._c393a752425a4fe2e67a9f8335af7c62_0001_1_0001_0000200007_0000001_1 (protein)
chain: SKAEEAERVAKNLNDPEAEEIVRLVKELEEEGDPEKLRELLARVLREAYERRNFELFAVINILVN
B3: il2ra_site2_2erj_normal_mot_HHH_b2_08201_000000058_0001_20_36_H_._HHH_b2_00201_af2_0001_0000100005_0000001_0 (protein)
chain: SSSSSEVEELLKEAKELLEEGNPEEAEEVLSRAFELAYRLGDEELFNEIVELFELIIELEHSSSS
B4: il2ra_site1_3nfp_sap_6_mot_HHH_b2_06502_000000163_0001_42_55_H_._HEEHE_0113_0001_0000200018_0000001_0_0001 (protein)
chain: SSSSSNDEAWRLLREAYEEFKKAKSREEMRELLEEAERLARELGDERLLRDIEKWLEQMKSSSSS
B5: il2ra_site1_3nfp_sap_17_mot_HHH_b1_07180_af2_000000260_0001_1_19_H_._HHH_b2_04738_0001_0000600012_0000001_0_0001_af2pred_0001_af2pred_1_swapped (protein)
chain: SSSSSDDLERMRELSRQLLELRRNEDKERLEELAQELLELAEETNSRAARILAELLLERASSSSS
B6: il2ra_site1_3nfp_sap_16_mot_58e3eb3031e6d57439b1b965989c2868_0001_af2_000000159_0001_19_34_H_._7652b2386bb4fc5942ed0486cd997122_0001_af2_0001_0000500019_0000001 … (protein)
chain: SSSSSPKREELARLFEEAEALAKAGKPEEAKEVLEKALKLAKELKANKTIRFIELCLKSLESSSS
B7: il2ra_site1_2b5i_sap_25_mot_c4dd8cf0dac887b0ed015202f8c0b8fc_0001_000000224_0001_37_51_H_._2012b86ae8029c2c8ab6d311e818aa61_0001_0001_0000100008_0000001_0_0001_ … (protein)
chain: SSSSSLVAEALALFKEADKLFQAGKEEEAKEVLEKALELAKAAGAKLLVKIIESALKDLESSSSS
B8: il2ra_site1_3nfp_normal_mot_HHH_b2_01219_af2_000000024_0001_1_17_H_._HHH_b1_07852_af2_0001_0000100004_0000001_0 (protein)
chain: SSSSSSLEWIEEQAERAFKNNDRLDLRALEKIVKRAIEIIGDPKAREVLELIEELLERLKSSSSS
B9: il2ra_site2_2erj_normal_mot_HHH_b1_00941_000000060_0001_45_58_H_._HHH_b1_02002_0001_0000100008_0000001_0_af2pred_0001_1_af2pred_swapped (protein)
chain: SSSSSDEEIEERVRELLEEAEKIKDKREALELLEEASKLAAELDDPELLELIDEVAQRLSSSSSS
B10: il2ra_site1_2b5i_sap_8_mot_HHH_b1_05103_000000017_0001_1_14_H_._HHH_b2_05767_0001_0000500016_0000001_0_0001 (protein)
chain: SSSSSLDERIQELFHRASRLFLEGNPEEARELLEEALELAEELGSPKLEEDVRQMLERLNSSSSS
B11: il2ra_site2_3nfp_sap_20_mot_HHH_b2_07129_000000128_0001_19_36_H_._HHH_b2_07592_0001_0000200010_0000001_0_0001 (protein)
chain: SDAEEAEQILLRIAHLAWEKNDFEAWMEVAELILRLARAKERNDEELVEEITELAKELEEKVRSS
B12: il2ra_site2_2erj_normal_mot_HHH_eva_0050_af2_000000198_0001_43_62_H_._HHH_b2_07905_0001_0000100006_0000001_1 (protein)
chain: SSSSSSDEEEKEVRELLEEARHLTDLEEVYRLLNEALHLAARHRDHELLELILEFLEEQSSSSSS
B13: il2ra_site2_3nfp_normal_mot_HHH_b1_01086_af2_000000264_0001_39_53_H_._HHH_b2_08168_0001_0000100002_0000001_0_af2pred_0001_af2pred (protein)
chain: SSSSSSSEEEVEELLEEAEKADDPRLRLLLLLRARKIAEQLGDPELQRLVEEVYRRLFSSSSSSS
B14: il2ra_site1_1z92_sap_9_mot_HHH_b1_06381_000000058_0001_42_59_H_._HHH_b1_03318_0001_0000100005_0000001_0_0001_af2pred_0001_af2pred_swapped (protein)
chain: SLVEQTLREAVEKNDEELLRRFIEIALRDAGDPRLVKQLLRILVKRLGLPPEVLERLEELLEELT
B15: il2ra_site1_3nfp_normal_mot_ems_3hC_921_af2_000000143_0001_22_40_H_._HHH_b2_03092_0001_0000300056_0000001_0_af2pred_0001_af2pred_1_swapped (protein)
chain: SSSSSEESREFQELSREVSKLIQEGDREEAEELLKELERLARELNSPIAELLVKLLEELLGSSSS
B16: il2ra_site1_3nfp_sap_13_mot_HHH_b1_02658_000000155_0001_1_19_H_._HHH_b2_06239_af2_0001_0000100001_0000001_0_0001 (protein)
chain: SSSSNAAMRWLREAAERAFENNNRLDLRALLRLLERAIEQFGDPEAEELLEFIERLLEKLSSSSS
B17: il2ra_site1_1z92_sap_17_mot_HHH_b1_00368_000000203_0001_23_39_H_._HHH_b2_03759_0001_0000300045_0000001_0_0001_af2pred_0001_af2pred_1 (protein)
chain: SSSSSLELAKRLHEFVLRLIEELGLSDEDAQKLLELLAQLLAKGVSEEEAEEELERLAEELSSSS
B18: il2ra_site1_1z92_sap_15_mot_e1ae4cb039f7b6770b9307eb87230ce5_0001_000000230_0001_37_51_H_._22eb9e4dad251339c268dc73c902281b_0001_0001_0000100004_0000001_0_0001_ … (protein)
chain: SSSSSSERDARIVVELAVRAAGLSEEQQEELERLAKELLEEGYSFEEIARILDKLALELGSSSSS
B19: il2ra_site2_3nfp_sap_18_mot_HHH_b1_04644_af2_000000261_0001_42_57_H_._HHH_b2_04983_af2_0001_0000400023_0000001_0_0001 (protein)
chain: SSSSSDDHELYERVVELLKRAAHIEDEEEVRQLLEEARELAEEAGNPVLRRSVEFVAKSLSSSSS

The binders below were run against il2ra, P01589 (assay: yeast display titration).

Apparent Kd, inactive:
B1 no binding seen, B2 no binding seen, B3 no binding seen, B4 no binding seen, B5 no binding seen, B6 no binding seen, B7 no binding seen, B8 no binding seen, B9 no binding seen, B10 no binding seen, B11 no binding seen, B12 no binding seen, B13 no binding seen, B14 no binding seen, B15 no binding seen, B16 no binding seen, B17 no binding seen, B18 no binding seen, B19 no binding seen
